Results are given in words; binding and its absence hold for the method and conditions named. Some binding calls cover weakened binding; strength is not graded here.
Assays:
[1] = molecular target: Cyno NKG2d (NKGW2.001) (cynomolgus monkey) (UniProt P61252); assay: ELISA of hybridoma supernatant
[2] = molecular target: N46W3 (NKp46 D1) (UniProt O76036); assay: binding kinetics to recombinant N46W3

By UniProt entry, the sequences of proteins in these tests, tags left out. Residues count along the entry.
UniProt P61252, residues 80-216: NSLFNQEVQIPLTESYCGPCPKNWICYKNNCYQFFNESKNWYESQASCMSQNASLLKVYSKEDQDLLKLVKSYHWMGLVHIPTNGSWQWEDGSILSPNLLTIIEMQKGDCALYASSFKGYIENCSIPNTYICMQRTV
UniProt O76036, residues 22-120: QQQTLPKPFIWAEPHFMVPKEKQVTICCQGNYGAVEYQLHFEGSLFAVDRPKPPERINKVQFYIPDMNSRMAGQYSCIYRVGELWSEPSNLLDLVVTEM

Binder | binding [1] | binding [2]
Clone NKGY1_045_F04 (antibody, V domains shown) VH: EVQLLESGGGLVQPGGSLRLSCAASGFTFSIYAMTWVRQAPGKGLEWVSIISGSGDHTFYADSVKGRFTISRDNSRNTLYLQMDSLRAEDTAVYYCAKEGKWVQLSHFANWGQGTLVTVSS VL: SYVLTQPPSVSVAPGQTARITCGGNNIGSKSVHWYQQKAGQAPVLVVYDDSDRPSGIPERFSGSNSGNTATLTISRVEAGDEADYYCQVWDGRSDHVVFGGGTKLTVL | binds | 
N46B105 (antibody, V domains shown) VH: QLQLQESGPGPVRPSETLSLTCTVSGDSIRSSSYYWGWIRQPPGKGLDWIGSIYYTGSTYYNPSLMSRVTISVDTSKNQFSLKLSSVTAADTAVYYCASPGYSSGWSIDYWGQGTLVTVSS VL: DIQLTQSPSFLSASVGDRVTITCRASQGISSYLAWYQQKPGKAPKLLIYVASTLQSGVPSRFSGSGSGTEFTLTISSLQPEDFATYYCQQLNSYPRMTFGGGTKVEIK |  | binds

Reference: US20240182582A1
